These results are taken from ChEMBL document CHEMBL1121902 (J Med Chem, 1981).

What all share (settings): Canis lupus familiaris, read-out: pA2 app (converted)
Experiment [1] has as its system Canis familiaris. As to the kind of experiment: Compound was tested for its ability to block isoproterenol-induced contractile force in anesthetized dogs.
In experiment [2] the test system is Canis familiaris. The experiment can be described thus: Compound was tested for its ability to block isoproterenol-induced increases in heart rate(HR) in anesthetized dogs.
Experiment [3] concerns Canis familiaris. As to the kind of experiment: Compound was tested for its ability to block isoproterenol-induced vasodilation in anesthetized dogs.

With `CC(C)NCC(O)COc1cccc2ccccc12` (stereo not drawn) [PROPRANOLOL], the results for the Kb in the experiment with Canis familiaris [1], in the experiment on Canis familiaris [2] and in the experiment on Canis familiaris [3] were 25.1 nM, 37.2 nM and 11.2 nM, respectively.
